For orientation: apparent Kd means the concentration giving half-maximal binding under the conditions of the assay.

The other results are listed elsewhere or left out.

The text below walks through data of publication PMC10163288.

Sequences and labels used below:
B1: il10ra_site1_normal_mot_HHH_b1_03262_af2_000000181_0001_43_57_H_._HHH_b2_04604_0001_0000200009_0000001_1_af2pred_0001 (protein)
chain: SSSSDERVRLTLHLVELLIKEGDLEAARFLLKAAKRLAERDGDEELEELIERLEEEVREGSSSSS
B2: il10ra_site1_normal_mot_65b8060e20531850bca9f2e11f97d954_0001_af2_000000137_0001_17_31_H_._HHH_b2_06315_0001_0000100001_0000002_0_af2pred_0001 (protein)
chain: SSSSDRDERALEIARRAAELLLEEGDPEAAKLALRLAVLLAKALGNEELLEELERLLREISSSSS
B3: il10ra_site1_normal_mot_HHH_b2_02354_af2_000000157_0001_40_56_H_._HHH_b1_07268_0001_0000100002_0000001_0_af2pred_0001 (protein)
chain: SSSSDKHEAAELITEIIKLLKEGDHEEAKELIEELEELAKRLNNPALKHLVKSLKKVIKEQSSSS
B4: il10ra_site1_sap_27_mot_HHH_b1_07286_af2_000000054_0001_1_19_H_._HHH_b2_07908_0001_0000600047_0000001_0_0001 (protein)
chain: SSSSDEWYERAKRLIERAAQLAREGNPEEAEEVLEELLELLRERGDRITSLVVEFAIRSLSSSSS
B5: il10ra_site1_sap_18_mot_HHH_b2_00230_000000227_0001_1_19_H_._HHH_b2_01903_0001_0000500025_0000001_0_0001_af2pred_0001 (protein)
chain: SSSSNEEERVARLLFRVVELLANGNPEEAEEVLEEARRLAEELGDEELRRAVEIAERAVKSSSSS
B6: il10ra_site1_normal_mot_HHH_b2_07086_af2_000000231_0001_20_36_H_._HHH_b2_02380_0001_0000200015_0000002_0_af2pred_dldesign_0_af2pred (protein)
chain: SSSSSPIEEEINRLIEKAKELKKAGKLQEAAELLREALRLAYENKNAELFNKVIKAAAELKSSSS
B7: il10ra_site1_sap_11_mot_HHH_b1_06348_000000162_0001_1_15_H_._HHH_b1_01184_af2_0002_0000500007_0000001_0_0001_af2pred_0001 (protein)
chain: SSSSSSDDIEEVIRLIREALHIDDPEEAREVLEEAEELARESNNPFLRFLVESALKKLSSSSSSS
B8: il10ra_site1_normal_mot_HHH_b2_00984_000000042_0001_1_20_H_._HHH_b1_00267_af2_0001_0000100004_0000002_0 (protein)
chain: SSSSSSDLEELLEELEELVEEGDREEASRLAAELVRLAFRLSDPEILQAVWKLIQSLRSSSSSSS
B9: il10ra_site1_sap_23_mot_HHH_b2_00479_000000091_0001_1_12_H_._HHH_b2_04892_af2_0001_0000800022_0000001_0_0001 (protein)
chain: SSSSDQAMRYIVEWVLENAERQVELGNPEKARIQLEALAEHLKQAGDEELLELVEELLERLSSSS
B10: il10ra_site1_sap_15_mot_HHH_b1_00814_af2_000000078_0001_43_57_H_._HHH_b2_00250_af2_0001_0000100010_0000001_0_0001_af2pred_0001 (protein)
chain: SSSSSRSAEEAIRRLLRAAKQLEDEERLKLAIRDALAAAEFLGNEELVEELRKILEELRSSSSSS
B11: il10ra_site1_normal_mot_65b8060e20531850bca9f2e11f97d954_0001_af2_000000137_0001_17_31_H_._HHH_b1_05146_af2_0001_0000500027_0000002_0 (protein)
chain: SSSSDDEVLELLVRVSRLLAEGNREEAEELLEELEKLIEELGDPRLELSLRFLEALLRSLSSSSS
B12: il10ra_site1_normal_mot_HHH_b2_08186_000000021_0001_43_56_H_._HHH_b2_03966_af2_0001_0000200007_0000002_0 (protein)
chain: SSSSDEEEERIEELLEEARRRFEEGDPERVLRLLLEALQLAYRTSDPELLKEIWELLKELSSSSS
B13: il10ra_site1_sap_12_mot_HHH_b2_01447_af2_000000258_0001_1_20_H_._HHH_b1_05821_0001_0000200018_0000002_0_0001_af2pred_0001 (protein)
chain: SSSSNYEERVAELLFEALELAARGNPEEARRLVEEAEEIAEENNDEELQRAVEILKRFIRSSSSS
B14: il10ra_site1_sap_25_mot_ems_3hM_235_000000244_0001_46_64_H_._HHH_b2_04950_0001_0000100004_0000002_0_0001_af2pred_0001 (protein)
chain: SSSSDEEYEEEVERLLEEAKHIEDPEEVKKIIAEAARLASEAKNPELAELVLQVWAELVDSSSSS
B15: il10ra_site1_sap_24_mot_HHH_b1_05587_000000266_0001_24_40_H_._HHH_b1_06872_0001_0000300018_0000002_0_0001 (protein)
chain: SSSSDARELVLRLLMRAVRLLFRGNPEEARELVEEAEEIAKELNDPELLRAAEIVLRMIEGSSSS
B16: il10ra_site1_normal_mot_HHH_b1_05357_000000034_0001_23_39_H_._HHH_b1_03844_0001_0000100001_0000001_0_af2pred_0001 (protein)
chain: SSSSDKEEVAYLLLRAYAAASQGNPEEAEELLEEAERIAEENNNERLKISIEIAKRAVRELSSSS
B17: il10ra_site1_normal_mot_HHH_b1_06789_af2_000000041_0001_1_20_H_._HHH_b2_01741_0001_0000400040_0000001_0_af2pred_0001 (protein)
chain: SSSSTLEEDVRSALRAAELLAEKGDPELAERALEIAELLAEQANDPELEELVEEVRKRVEGSSSS
B18: il10ra_site1_sap_19_mot_HHH_b1_00999_000000080_0001_41_55_H_._HHH_b2_01341_0001_0000100003_0000001_0_0001 (protein)
chain: SSSSSSDEAREEAEELVEEAKEIEDPREALRLLQKAVRLALRGNDEELLQEIWELALRLSSSSSS
B19: il10ra_site1_sap_17_mot_HHH_b1_06788_af2_000000238_0001_19_36_H_._HHH_b1_06164_af2_0001_0000500015_0000001_0_0001 (protein)
chain: SSSSDEEERRLAELFVEASRLWDEGNPEEAEKVTRELEELARELGDEEAKISVEFLKALNSSSSS
B20: il10ra_site1_normal_mot_HHH_b1_01555_000000194_0001_1_18_H_._HHH_b1_01506_0001_0000500031_0000001_0 (protein)
chain: SSSSDLEEYVKLTERFAKALLKSGDPEAARRLLRAALDAAKRANDPELLERLEELLEEVEKSSSS
B21: il10ra_site1_normal_mot_HHH_b1_05056_000000217_0001_1_20_H_._HHH_b2_04285_0001_0000100002_0000001_0 (protein)
chain: SSSSDLEEEIERLEEELREARERGDKELALQLLLRLLRLAYETRDEELLRELWEIVRKLFSSSSS
B22: il10ra_site1_normal_mot_HHH_b1_00929_000000068_0001_1_20_H_._HHH_b2_07413_0001_0000400041_0000002_0 (protein)
chain: SSSSDILEEVWELARKVVELIENGNPEEARKLVEEIEELAEEFNNELVEFLARQLKIRIDSSSSS
B23: il10ra_site1_sap_20_mot_HHH_b1_02397_af2_000000085_0001_39_57_H_._HHH_b2_06748_af2_0001_0000600026_0000002_0_0001_af2pred_0001 (protein)
chain: SSSSSRVELAAHQAKHDAKAAGDEEAQEKVEEVEEALERGEISEQEALHLLAKILREITESSSSS
B24: il10ra_site1_sap_13_mot_HHH_b1_08411_af2_000000053_0001_1_20_H_._HHH_b2_01294_af2_0001_0000100012_0000002_0_0001 (protein)
chain: SSSSSDADEIYELLRRALELLANGNPEEARKVLEEAEELAEEAGNWTFRFAIELLQREANSSSSS

For this assay, the target named is il10ra, Q13651. Nature of the assay: yeast display titration.
B1: the “apparent Kd” value is “inactive: no binding seen”.
In the case of B2 it was “inactive: no binding seen”.
The entry for B3 is “inactive: no binding seen”; for B4 it is inactive: > 664 nM; for B5 it is “inactive: no binding seen”.
With B6, the “apparent Kd” value was “inactive: no binding seen”.
In the case of B7 it was “inactive: no binding seen”; in that of B8, “inactive: no binding seen”.
Take B9: the “apparent Kd” value was “inactive: no binding seen”.
In the case of B10 it was “inactive: no binding seen”; in that of B11, “inactive: no binding seen”; in that of B12, “inactive: no binding seen”.
In the case of B13, the “apparent Kd” value is “inactive: no binding seen”.
In the case of B14 it was “inactive: no binding seen”; in that of B15, “inactive: no binding seen”; in that of B16, “inactive: no binding seen”.
In the case of B17 it was “inactive: no binding seen”; in that of B18, “inactive: no binding seen”; in that of B19, “inactive: no binding seen”.
The entry for B20 is “inactive: no binding seen”; for B21 it is “inactive: no binding seen”; for B22 it is “inactive: no binding seen”.
As to B23, the “apparent Kd” value is “inactive: no binding seen”.
In the case of B24 it was “inactive: no binding seen”.
